Measured values published in article PMC9243173.
Results are given in words; binding and its absence hold for the method and conditions named. In cells and extracts the contact can be indirect. Here binding means that the protein was enriched with, or labelled near, the bait; the list need not be complete. Where a sequence is shown, tags or fusion partners need not be part of it.

By UniProt entry, the sequences of proteins in these tests, tags left out.
UniProt P28340: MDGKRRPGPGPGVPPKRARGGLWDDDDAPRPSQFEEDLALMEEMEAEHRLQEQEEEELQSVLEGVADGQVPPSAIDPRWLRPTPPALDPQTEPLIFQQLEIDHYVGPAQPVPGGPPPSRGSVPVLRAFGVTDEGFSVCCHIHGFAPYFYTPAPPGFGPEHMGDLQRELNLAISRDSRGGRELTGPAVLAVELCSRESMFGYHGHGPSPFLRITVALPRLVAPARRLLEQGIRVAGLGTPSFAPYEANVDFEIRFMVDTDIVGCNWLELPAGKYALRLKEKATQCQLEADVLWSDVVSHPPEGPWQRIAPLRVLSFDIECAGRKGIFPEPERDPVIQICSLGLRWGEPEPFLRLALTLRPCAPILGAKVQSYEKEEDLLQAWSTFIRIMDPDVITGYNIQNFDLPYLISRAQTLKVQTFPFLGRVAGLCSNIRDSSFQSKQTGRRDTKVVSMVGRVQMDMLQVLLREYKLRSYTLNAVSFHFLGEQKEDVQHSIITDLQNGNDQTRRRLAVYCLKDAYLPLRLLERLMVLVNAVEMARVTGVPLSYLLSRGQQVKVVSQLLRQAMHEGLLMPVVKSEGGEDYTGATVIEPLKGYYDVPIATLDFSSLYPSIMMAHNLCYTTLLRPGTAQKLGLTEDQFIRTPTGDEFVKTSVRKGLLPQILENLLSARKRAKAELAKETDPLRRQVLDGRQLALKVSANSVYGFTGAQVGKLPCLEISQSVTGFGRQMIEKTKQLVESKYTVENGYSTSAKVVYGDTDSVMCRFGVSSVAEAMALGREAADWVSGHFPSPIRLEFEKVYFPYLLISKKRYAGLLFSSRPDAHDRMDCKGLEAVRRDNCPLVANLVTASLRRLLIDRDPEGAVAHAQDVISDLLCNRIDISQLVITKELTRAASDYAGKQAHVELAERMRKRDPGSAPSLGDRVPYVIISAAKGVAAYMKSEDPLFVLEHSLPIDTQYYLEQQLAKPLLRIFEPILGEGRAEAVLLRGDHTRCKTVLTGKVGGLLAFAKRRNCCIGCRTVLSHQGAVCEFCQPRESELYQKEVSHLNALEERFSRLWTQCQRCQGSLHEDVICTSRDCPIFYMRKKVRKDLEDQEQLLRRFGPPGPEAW

Target: T1, 3HA-3FLAG-tagged NUBP2 (nucleotide-binding protein 2) (human) (UniProt Q9Y5Y2)
T1 sequence: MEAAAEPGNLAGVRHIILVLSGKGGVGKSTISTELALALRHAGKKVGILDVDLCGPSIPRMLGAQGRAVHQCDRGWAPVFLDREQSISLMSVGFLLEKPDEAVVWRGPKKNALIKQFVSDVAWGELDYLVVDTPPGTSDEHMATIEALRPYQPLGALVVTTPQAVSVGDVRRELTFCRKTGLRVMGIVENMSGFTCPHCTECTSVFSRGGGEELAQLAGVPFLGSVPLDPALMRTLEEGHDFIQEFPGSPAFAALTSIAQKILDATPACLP
Assay: affinity purification with mass spectrometry; anti-HA beads on lysates of Flp-In 293 cells expressing the 3HA-3FLAG-tagged bait (NUBP2, wildtype or mutant CIAO3); targeted proteomics assay (parallel reaction monitoring) of CIA components and substrates; CIAO3 purifications normalised to CIAO3; wildtype CIAO3 cells also treated with FAC or DFO for 8 h

binding: binds
Substance: POLD1 (from UniProt P28340 1-1107)
